Experimental data published in the supplement of paper PMC10849652.
This is one part of the list.

Sequences of proteins named here, by UniProt entry; tags and fusion partners are left off. A change or cut given only in a name is not applied to a line headed by its entry.
UniProt Q9H3H3: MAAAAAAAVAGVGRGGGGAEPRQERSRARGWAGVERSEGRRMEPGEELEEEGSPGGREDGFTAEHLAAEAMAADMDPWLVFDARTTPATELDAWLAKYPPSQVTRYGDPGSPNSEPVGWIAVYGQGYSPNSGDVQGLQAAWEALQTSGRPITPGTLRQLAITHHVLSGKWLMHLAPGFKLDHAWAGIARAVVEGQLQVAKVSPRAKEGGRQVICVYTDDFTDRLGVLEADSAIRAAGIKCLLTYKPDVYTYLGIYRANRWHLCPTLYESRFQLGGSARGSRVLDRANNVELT
UniProt P17655: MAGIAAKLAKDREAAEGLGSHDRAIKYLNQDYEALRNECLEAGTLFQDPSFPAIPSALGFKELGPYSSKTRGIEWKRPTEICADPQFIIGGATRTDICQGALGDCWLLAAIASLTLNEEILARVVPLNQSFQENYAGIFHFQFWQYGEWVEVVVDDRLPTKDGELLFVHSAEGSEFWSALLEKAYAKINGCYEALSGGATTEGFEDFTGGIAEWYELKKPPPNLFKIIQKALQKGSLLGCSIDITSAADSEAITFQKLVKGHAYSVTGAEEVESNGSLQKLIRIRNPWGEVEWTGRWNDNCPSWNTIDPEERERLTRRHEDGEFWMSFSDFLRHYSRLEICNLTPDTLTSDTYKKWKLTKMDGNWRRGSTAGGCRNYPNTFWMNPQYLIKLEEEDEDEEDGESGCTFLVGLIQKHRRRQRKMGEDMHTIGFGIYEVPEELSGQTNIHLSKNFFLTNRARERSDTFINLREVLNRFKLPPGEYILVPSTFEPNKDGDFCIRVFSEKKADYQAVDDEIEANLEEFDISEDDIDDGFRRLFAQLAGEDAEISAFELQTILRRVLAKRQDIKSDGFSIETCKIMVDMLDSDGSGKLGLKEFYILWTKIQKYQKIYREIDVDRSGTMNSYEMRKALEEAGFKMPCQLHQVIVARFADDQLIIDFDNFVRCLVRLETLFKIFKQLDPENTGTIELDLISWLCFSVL
UniProt Q32NC0: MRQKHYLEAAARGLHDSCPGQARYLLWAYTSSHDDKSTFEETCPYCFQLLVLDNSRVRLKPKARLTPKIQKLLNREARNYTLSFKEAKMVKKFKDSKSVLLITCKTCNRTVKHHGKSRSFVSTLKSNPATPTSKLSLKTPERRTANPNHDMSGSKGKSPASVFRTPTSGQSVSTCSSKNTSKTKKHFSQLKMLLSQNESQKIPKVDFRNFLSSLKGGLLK
UniProt Q96MD7: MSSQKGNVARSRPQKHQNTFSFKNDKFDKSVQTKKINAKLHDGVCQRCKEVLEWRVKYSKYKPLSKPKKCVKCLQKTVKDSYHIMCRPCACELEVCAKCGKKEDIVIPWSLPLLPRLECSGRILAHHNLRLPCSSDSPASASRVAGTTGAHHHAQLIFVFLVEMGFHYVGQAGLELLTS
UniProt Q9Y6E2: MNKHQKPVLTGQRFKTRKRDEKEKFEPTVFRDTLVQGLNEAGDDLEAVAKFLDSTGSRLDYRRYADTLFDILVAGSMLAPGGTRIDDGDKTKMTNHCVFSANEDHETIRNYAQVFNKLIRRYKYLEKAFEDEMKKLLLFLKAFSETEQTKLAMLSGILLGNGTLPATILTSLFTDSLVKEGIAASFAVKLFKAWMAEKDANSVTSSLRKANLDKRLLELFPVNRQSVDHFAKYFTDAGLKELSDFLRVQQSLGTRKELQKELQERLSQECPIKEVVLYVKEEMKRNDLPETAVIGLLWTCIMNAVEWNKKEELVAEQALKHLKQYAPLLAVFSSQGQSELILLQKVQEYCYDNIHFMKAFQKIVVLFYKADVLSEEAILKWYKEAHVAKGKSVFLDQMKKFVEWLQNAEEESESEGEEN
UniProt Q07021: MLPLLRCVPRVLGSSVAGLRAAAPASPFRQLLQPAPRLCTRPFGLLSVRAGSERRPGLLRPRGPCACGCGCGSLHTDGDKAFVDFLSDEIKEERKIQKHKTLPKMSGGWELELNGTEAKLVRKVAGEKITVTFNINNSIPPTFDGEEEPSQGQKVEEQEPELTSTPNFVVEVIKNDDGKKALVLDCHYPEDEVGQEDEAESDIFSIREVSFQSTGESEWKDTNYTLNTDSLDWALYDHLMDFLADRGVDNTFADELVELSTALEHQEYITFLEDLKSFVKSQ
UniProt Q6P5X5: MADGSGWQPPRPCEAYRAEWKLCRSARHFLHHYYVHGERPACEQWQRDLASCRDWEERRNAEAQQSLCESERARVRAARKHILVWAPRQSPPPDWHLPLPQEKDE
UniProt Q9H7E9: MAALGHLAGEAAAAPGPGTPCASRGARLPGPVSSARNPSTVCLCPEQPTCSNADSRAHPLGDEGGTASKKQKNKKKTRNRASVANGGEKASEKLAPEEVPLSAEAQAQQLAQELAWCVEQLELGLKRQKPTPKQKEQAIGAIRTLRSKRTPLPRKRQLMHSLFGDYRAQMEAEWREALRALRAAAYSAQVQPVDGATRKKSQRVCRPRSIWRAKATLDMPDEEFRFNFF
UniProt Q7Z4R8: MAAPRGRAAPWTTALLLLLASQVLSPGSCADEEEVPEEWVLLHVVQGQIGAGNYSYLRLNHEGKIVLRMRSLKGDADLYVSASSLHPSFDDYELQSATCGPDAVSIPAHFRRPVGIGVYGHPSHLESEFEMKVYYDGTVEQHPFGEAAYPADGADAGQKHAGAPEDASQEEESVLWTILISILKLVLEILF
UniProt P35219: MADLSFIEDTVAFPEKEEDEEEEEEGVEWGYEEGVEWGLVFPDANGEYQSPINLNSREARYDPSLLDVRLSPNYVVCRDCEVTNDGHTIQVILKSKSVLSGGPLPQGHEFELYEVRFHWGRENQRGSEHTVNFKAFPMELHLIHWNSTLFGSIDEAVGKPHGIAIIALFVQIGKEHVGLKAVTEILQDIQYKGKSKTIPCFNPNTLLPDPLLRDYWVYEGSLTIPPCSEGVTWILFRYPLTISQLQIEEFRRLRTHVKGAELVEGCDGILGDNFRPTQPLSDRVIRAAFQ
UniProt Q5T6V5: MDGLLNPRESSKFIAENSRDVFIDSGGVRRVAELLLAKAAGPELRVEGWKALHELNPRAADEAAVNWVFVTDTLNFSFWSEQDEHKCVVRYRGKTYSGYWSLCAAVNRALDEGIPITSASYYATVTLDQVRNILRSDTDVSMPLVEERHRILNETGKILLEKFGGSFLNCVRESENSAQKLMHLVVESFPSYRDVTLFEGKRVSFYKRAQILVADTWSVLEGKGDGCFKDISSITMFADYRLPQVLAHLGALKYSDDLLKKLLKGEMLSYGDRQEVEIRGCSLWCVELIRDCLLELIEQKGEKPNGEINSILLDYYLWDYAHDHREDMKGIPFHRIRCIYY
UniProt Q9BV19: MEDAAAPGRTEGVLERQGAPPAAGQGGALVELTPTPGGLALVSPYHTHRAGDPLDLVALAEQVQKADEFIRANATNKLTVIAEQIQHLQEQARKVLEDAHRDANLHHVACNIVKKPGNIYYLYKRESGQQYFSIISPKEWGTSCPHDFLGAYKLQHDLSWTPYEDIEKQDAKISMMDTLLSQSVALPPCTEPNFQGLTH
UniProt P27708: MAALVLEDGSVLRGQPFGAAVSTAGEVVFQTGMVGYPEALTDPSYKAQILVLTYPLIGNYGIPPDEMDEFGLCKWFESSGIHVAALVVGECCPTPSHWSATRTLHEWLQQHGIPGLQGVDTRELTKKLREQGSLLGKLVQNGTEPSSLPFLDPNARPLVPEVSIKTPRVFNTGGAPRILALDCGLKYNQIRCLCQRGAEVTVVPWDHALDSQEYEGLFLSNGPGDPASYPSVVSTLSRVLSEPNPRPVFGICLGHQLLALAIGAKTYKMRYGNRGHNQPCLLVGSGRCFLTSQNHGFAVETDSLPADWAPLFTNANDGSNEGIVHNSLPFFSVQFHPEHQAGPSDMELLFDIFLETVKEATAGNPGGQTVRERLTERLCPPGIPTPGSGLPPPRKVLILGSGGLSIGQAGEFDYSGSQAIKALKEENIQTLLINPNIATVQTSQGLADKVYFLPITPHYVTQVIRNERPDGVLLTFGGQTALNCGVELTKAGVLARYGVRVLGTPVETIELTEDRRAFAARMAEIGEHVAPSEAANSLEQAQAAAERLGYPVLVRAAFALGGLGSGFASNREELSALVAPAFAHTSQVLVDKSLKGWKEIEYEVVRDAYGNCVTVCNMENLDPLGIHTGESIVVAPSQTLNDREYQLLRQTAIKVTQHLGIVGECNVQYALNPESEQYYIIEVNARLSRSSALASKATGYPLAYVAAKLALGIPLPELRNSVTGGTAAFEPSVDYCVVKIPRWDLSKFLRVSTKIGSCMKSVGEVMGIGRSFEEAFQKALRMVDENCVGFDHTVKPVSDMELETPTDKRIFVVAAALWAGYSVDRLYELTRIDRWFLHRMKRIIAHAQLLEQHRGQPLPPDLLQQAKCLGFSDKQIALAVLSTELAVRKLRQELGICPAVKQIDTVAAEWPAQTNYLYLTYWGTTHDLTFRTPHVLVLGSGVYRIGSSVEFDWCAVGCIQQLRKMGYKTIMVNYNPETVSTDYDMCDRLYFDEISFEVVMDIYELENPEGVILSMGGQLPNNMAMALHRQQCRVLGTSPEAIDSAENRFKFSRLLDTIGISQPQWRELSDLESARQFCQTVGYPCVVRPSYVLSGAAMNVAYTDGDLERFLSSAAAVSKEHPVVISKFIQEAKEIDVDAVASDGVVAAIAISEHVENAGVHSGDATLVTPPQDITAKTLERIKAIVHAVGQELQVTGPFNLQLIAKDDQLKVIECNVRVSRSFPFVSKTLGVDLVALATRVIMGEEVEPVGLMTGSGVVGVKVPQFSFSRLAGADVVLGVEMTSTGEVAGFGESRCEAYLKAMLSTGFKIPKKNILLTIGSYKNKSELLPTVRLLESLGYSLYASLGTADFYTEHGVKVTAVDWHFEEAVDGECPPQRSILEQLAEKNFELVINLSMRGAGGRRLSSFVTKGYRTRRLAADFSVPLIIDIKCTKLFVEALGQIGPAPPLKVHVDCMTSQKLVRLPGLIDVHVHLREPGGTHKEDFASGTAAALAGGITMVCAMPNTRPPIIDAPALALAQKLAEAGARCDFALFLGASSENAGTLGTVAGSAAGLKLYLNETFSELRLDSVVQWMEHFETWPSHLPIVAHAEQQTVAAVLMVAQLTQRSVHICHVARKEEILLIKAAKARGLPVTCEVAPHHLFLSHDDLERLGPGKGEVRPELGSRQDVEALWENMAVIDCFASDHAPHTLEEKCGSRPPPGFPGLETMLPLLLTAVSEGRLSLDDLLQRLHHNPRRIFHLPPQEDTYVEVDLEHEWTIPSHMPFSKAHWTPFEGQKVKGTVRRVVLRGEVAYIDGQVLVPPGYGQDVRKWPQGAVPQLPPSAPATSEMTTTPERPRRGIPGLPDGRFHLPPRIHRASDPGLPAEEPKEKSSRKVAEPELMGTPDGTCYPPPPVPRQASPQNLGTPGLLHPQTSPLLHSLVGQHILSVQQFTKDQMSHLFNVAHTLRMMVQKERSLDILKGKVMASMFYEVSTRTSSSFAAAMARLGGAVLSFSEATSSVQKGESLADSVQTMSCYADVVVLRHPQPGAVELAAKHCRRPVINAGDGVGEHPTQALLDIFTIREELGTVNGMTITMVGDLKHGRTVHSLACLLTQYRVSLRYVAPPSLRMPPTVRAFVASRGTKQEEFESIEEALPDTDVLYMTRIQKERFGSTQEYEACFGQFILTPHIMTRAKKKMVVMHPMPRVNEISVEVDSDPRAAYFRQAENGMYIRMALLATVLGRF
UniProt Q9BVC5: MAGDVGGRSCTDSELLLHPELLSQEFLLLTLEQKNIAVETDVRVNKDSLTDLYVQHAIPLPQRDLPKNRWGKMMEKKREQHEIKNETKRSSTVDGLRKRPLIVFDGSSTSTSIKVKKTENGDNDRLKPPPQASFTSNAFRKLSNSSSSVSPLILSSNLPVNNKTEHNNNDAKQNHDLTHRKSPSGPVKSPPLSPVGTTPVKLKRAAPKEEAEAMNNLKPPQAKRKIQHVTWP
UniProt Q9HB71, whole entry, looked up: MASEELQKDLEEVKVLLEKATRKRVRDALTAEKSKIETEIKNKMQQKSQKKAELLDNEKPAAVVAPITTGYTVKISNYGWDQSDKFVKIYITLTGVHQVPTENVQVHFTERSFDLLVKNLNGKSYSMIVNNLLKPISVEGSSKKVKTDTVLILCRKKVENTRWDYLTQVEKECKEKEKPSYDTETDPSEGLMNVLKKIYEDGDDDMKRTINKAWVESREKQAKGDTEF
UniProt Q13895: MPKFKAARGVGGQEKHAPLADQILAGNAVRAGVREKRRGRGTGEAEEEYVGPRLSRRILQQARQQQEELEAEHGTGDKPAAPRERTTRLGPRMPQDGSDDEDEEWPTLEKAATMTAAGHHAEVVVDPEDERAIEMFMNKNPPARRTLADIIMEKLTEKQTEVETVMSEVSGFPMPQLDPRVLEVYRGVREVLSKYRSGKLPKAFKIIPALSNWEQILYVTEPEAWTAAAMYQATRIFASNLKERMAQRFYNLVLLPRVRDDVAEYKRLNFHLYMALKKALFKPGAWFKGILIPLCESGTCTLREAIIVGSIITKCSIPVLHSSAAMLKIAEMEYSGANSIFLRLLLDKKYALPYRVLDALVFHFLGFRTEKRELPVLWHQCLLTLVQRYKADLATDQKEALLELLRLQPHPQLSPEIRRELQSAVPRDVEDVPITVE

Each target was assayed with Cc1sc2c(c1C)C(c1ccc(Cl)cc1)=N[C@@H](CC(=O)OC(C)(C)C)c1nnc(C)n1-2 (assay: log2 fold change, soluble protein after heating vs DMSO (PISA); higher = thermal stabilisation; K562 lysate, 10 uM; active = over 0.2 and 3.5 SD of the protein, either way, in both replicates (recomputed)).
Summary of the method: (§1)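 Following dounce homogenisation of K562 pellets in PBS pH 7.4 with 1 mM MgCl2, crude extract at 1 mg/mL protein was incubated for 30 min with 10 μM compound. Aliquots were then heated for 3 min over 48°C-58°C and pooled, NP-40 was added to 0.5% at 4°C, and soluble protein was recovered as the supernatant at 21,000xg for 90 min. Channel-sum-equalised TMTpro 16plex LC-MS/MS quantified this protein. Each value, from duplicates, is a log-two fold change in thermal stability relative to solvent controls.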

| Target | log2 fold change |
| --- | --- |
| C18orf32 (UniProt Q8TCD1) | inactive: -0.028 |
| C11orf68 isoform 3 (UniProt Q9H3H3) | inactive: -0.004 |
| BZW1 isoform 3 (UniProt Q7L1Q6) | inactive: 0.004 |
| CAB39L (UniProt Q9H9S4) | inactive: -0.064 |
| CAPN2 (UniProt P17655) | inactive: -0.002 |
| C7orf26 (UniProt Q96N11) | inactive: -0.031 |
| CAND1 (UniProt Q86VP6) | inactive: -0.01 |
| C18orf25 isoform 2 (UniProt Q96B23) | inactive: 0.089 |
| C18orf21 (UniProt Q32NC0) | inactive: 0.158 |
| C2orf69 (UniProt Q8N8R5) | inactive: -0.002 |
| C9orf85 isoform 1 (UniProt Q96MD7) | inactive: -0.023 |
| CAPN7 (UniProt Q9Y6W3) | inactive: -0.01 |
| BZW2 (UniProt Q9Y6E2) | inactive: 0.024 |
| C12orf73 (UniProt Q69YU5) | inactive: 0.046 |
| CAPZA1 (UniProt P52907) | inactive: -0.035 |
| C5orf22 (UniProt Q49AR2) | inactive: -0.02 |
| C12orf29 (UniProt Q8N999) | inactive: -0.048 |
| C1QBP (UniProt Q07021) | inactive: -0.002 |
| C22orf39 (UniProt Q6P5X5) | inactive: 0.023 |
| CA13 (UniProt Q8N1Q1) | inactive: 0 |

| Target | log2 fold change |
| --- | --- |
| C11orf96 (UniProt Q7Z7L8) | inactive: 0.008 |
| C8orf33 isoform 2 (UniProt Q9H7E9) | inactive: 0.007 |
| C6orf120 (UniProt Q7Z4R8) | inactive: -0.131 |
| CA8 (UniProt P35219) | inactive: 0.032 |
| CAND1 (UniProt F5H6I6) | inactive: -0.076 |
| C9orf64 (UniProt Q5T6V5) | inactive: -0.002 |
| C1orf50 (UniProt Q9BV19) | inactive: 0.034 |
| CALM2 (UniProt P0DP24) | inactive: -0.088 |
| C2orf76 (UniProt Q3KRA6) | inactive: 0.027 |
| C7orf25 isoform 2 (UniProt Q9BPX7) | inactive: 0.088 |
| CAD (UniProt P27708) | inactive: 0.022 |
| C2orf49 (UniProt Q9BVC5) | inactive: -0.025 |
| C1orf122 (UniProt Q6ZSJ8) | inactive: 0.019 |
| C8orf88 (UniProt P0DMB2) | inactive: 0.051 |
| CARD11 (UniProt Q9BXL7) | inactive: -0.084 |
| CACYBP (UniProt Q9HB71) | inactive: -0.003 |
| CA1 (UniProt P00915) | inactive: -0.01 |
| CAMLG (UniProt P49069) | inactive: 0.05 |
| BYSL (UniProt Q13895) | inactive: 0.029 |

Each target was assayed with c1ccc([C@@H]2C[C@H]2NC2CCNCC2)cc1 in the same assay as above.
Summary of the method: as §1

| Target | log2 fold change |
| --- | --- |
| C18orf32 (UniProt Q8TCD1) | inactive: 0.076 |
| C11orf68 isoform 3 (UniProt Q9H3H3) | inactive: -0.085 |
| BZW1 isoform 3 (UniProt Q7L1Q6) | inactive: 0.032 |
| CAB39L (UniProt Q9H9S4) | inactive: 0.074 |
| CAPN2 (UniProt P17655) | inactive: 0.006 |
| C7orf26 (UniProt Q96N11) | inactive: 0.028 |
| CAND1 (UniProt Q86VP6) | inactive: -0.081 |
| C18orf25 isoform 2 (UniProt Q96B23) | inactive: -0.003 |
| C18orf21 (UniProt Q32NC0) | inactive: 0.023 |
| C2orf69 (UniProt Q8N8R5) | inactive: -0.022 |
| BTRC (UniProt Q9Y297) | inactive: -0.048 |
| C9orf85 isoform 1 (UniProt Q96MD7) | inactive: 0.005 |
| CAPN7 (UniProt Q9Y6W3) | inactive: 0.04 |
| BZW2 (UniProt Q9Y6E2) | inactive: 0.055 |
| C12orf73 (UniProt Q69YU5) | inactive: -0.057 |
| CAPZA1 (UniProt P52907) | inactive: -0.022 |
| C5orf22 (UniProt Q49AR2) | inactive: -0.005 |
| C12orf29 (UniProt Q8N999) | inactive: -0.059 |
| C1QBP (UniProt Q07021) | inactive: -0.005 |
| C22orf39 (UniProt Q6P5X5) | inactive: -0.004 |

| Target | log2 fold change |
| --- | --- |
| CA13 (UniProt Q8N1Q1) | inactive: -0.023 |
| C11orf96 (UniProt Q7Z7L8) | inactive: 0.031 |
| C8orf33 isoform 2 (UniProt Q9H7E9) | inactive: -0.004 |
| C6orf120 (UniProt Q7Z4R8) | inactive: 0.137 |
| CA8 (UniProt P35219) | inactive: 0.016 |
| C9orf64 (UniProt Q5T6V5) | inactive: 0.01 |
| C1orf50 (UniProt Q9BV19) | inactive: 0.041 |
| CALM2 (UniProt P0DP24) | inactive: -0.001 |
| C2orf76 (UniProt Q3KRA6) | inactive: 0.015 |
| C7orf25 isoform 2 (UniProt Q9BPX7) | inactive: 0.185 |
| CAD (UniProt P27708) | inactive: 0.002 |
| C2orf49 (UniProt Q9BVC5) | inactive: 0.027 |
| C1orf122 (UniProt Q6ZSJ8) | inactive: -0.004 |
| C8orf88 (UniProt P0DMB2) | inactive: -0.002 |
| CARD11 (UniProt Q9BXL7) | inactive: -0.019 |
| CACYBP (UniProt Q9HB71) | inactive: -0.029 |
| CA1 (UniProt P00915) | inactive: -0.054 |
| CAMLG (UniProt P49069) | inactive: 0.074 |
| BYSL (UniProt Q13895) | inactive: 0.041 |
